Our source for the binding values is publication PMC8233344.

Amino acid sequences for entries named in this document (tags omitted).
UniProt Q7L0J3: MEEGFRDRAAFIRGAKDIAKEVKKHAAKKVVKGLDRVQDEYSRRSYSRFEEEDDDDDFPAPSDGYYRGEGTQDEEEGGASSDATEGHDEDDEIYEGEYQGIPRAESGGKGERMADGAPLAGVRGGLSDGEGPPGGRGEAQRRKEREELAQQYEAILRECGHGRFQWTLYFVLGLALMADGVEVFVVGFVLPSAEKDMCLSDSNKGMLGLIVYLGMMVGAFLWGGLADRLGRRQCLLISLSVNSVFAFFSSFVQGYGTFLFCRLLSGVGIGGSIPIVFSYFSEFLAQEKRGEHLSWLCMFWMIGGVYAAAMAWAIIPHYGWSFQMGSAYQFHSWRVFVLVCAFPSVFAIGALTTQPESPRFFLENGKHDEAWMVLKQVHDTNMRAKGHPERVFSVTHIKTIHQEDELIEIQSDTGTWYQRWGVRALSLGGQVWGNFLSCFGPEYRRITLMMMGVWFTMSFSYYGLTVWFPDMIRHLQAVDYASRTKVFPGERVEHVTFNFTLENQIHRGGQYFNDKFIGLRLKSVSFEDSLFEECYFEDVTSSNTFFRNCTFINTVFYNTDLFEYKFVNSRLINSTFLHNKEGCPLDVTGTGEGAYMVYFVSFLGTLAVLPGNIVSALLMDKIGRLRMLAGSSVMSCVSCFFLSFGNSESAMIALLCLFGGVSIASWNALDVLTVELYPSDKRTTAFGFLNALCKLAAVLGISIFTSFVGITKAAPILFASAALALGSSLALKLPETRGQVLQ

Experiment [1] deals with T1, RFP-C9orf72 (human) (UniProt Q96LT7).
T1 sequence: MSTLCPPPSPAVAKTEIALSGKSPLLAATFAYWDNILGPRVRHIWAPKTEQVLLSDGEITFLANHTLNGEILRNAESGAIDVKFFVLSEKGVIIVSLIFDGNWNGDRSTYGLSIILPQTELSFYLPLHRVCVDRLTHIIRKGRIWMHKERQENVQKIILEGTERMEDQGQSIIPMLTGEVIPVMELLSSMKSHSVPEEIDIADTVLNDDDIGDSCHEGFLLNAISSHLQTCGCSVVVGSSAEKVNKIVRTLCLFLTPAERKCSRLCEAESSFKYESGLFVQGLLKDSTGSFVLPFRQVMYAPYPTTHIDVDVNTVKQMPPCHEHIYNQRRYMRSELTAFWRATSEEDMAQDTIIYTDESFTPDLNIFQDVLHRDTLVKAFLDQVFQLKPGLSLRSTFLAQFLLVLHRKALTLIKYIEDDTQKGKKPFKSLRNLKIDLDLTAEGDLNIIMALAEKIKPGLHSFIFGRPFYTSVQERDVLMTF
Nature of the experiment: co-IP; HEK293T cells co-transfected with RFP-C9orf72 or RFP and Myc-SMCR8 or Myc-SV2a; RIPA lysate incubated 2 h with RFP-Trap agarose beads, rinsed 5 times with RIPA; immunoblot with anti-Myc and anti-C9orf72. For orientation: Immunoblotting shows a protein as a band on a membrane.

The target of experiment [2] is T1, RFP-C9orf72 (human). The experiment is described as above. The source holds these as a separate data set.

Like-named read-outs stand apart in the source and are kept apart here. Results are given in words; binding and its absence hold for the method and conditions named. Binding seen in cells or lysates may run through a third protein. Some binding calls cover weakened binding; strength is not graded here. For some assays here: Sequences can lack the tags named with a protein.

As for Myc-SV2a (from UniProt Q7L0J3 1-742), the binding result with RFP-C9orf72 (human) [1] is “binds”.

B1: Myc-SMCR8 (protein, UniProt Q8TEV9 1-937)
chain: MISAPDVVAFTKEEEYEEEPYNEPALPEEYSVPLFPFASQGANPWSKLSGAKFSRDFILISEFSEQVGPQPLLTIPNDTKVFGTFDLNYFSLRIMSVDYQASFVGHPPGSAYPKLNFVEDSKVVLGDSKEGAFAYVHHLTLYDLEARGFVRPFCMAYISADQHKIMQQFQELSAEFSRASECLKTGNRKAFAGELEKKLKDLDYTRTVLHTETEIQKKANDKGFYSSQAIEKANELASVEKSIIEHQDLLKQIRSYPHRKLKGHDLCPGEMEHIQDQASQASTTSNPDESADTDLYTCRPAYTPKLIKAKSTKCFDKKLKTLEELCDTEYFTQTLAQLSHIEHMFRGDLCYLLTSQIDRALLKQQHITNFLFEDFVEVDDRMVEKQESIPSKPSQDRPPSSSLEECPIPKVLISVGSYKSSVESVLIKMEQELGDEEYKEVEVTELSSFDPQENLDYLDMDMKGSISSGESIEVLGTEKSTSVLSKSDSQASLTVPLSPQVVRSKAVSHRTISEDSIEVLSTCPSEALIPDDFKASYPSAINEEESYPDGNEGAIRFQASISPPELGETEEGSIENTPSQIDSSCCIGKESDGQLVLPSTPAHTHSDEDGVVSSPPQRHRQKDQGFRVDFSVENANPSSRDNSCEGFPAYELDPSHLLASRDISKTSLDNYSDTTSYVSSVASTSSDRIPSAYPAGLSSDRHKKRAGQNALKFIRQYPFAHPAIYSLLSGRTLVVLGEDEAIVRKLVTALAIFVPSYGCYAKPVKHWASSPLHIMDFQKWKLIGLQRVASPAGAGTLHALSRYSRYTSILDLDNKTLRCPLYRGTLVPRLADHRTQIKRGSTYYLHVQSMLTQLCSKAFLYTFCHHLHLPTHDKETEELVASRQMSFLKLTLGLVNEDVRVVQYLAELLKLHYMQESPGTSHPMLRFDYVPSFLYKI
With B1, in the experiment with RFP-C9orf72 (human) [2], the binding result was “binds”.
